Reference: PMC8160232

Columns and labels:
[1] = target: T1, Vfr (Pseudomonas protegens FD6) (UniProt A0A2C9EUP7); test: competition with a labelled probe; conditions: 25 C 20 min, recombinant protein, protein details: C-terminal His6
T1 sequence (looked up, limits assumed): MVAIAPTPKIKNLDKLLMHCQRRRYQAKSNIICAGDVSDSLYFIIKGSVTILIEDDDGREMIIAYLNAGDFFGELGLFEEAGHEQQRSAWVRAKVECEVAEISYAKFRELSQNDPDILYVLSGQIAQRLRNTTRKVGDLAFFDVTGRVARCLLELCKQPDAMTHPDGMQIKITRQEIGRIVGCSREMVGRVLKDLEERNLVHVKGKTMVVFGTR

[2] = target: T1, Vfr (Pseudomonas protegens FD6); test: EMSA; conditions: Beyotime chemiluminescent EMSA kit buffer (composition not given), 10 uL, 0.5-4 ug Vfr, 0.02 uM probe (legends; Methods say 1 umol), 25 C 20 min; recombinant protein; protein details: C-terminal His6; label: biotin (unlabeled as competitor)
[3] = target: T2, Vfr (Pseudomonas protegens FD6) (UniProt A0A2C9EUP7); test: EMSA; conditions: 0.5-2 ug Vfr, competed by unlabeled probe; Beyotime chemiluminescent EMSA kit buffer (composition not given), 10 uL, 0.5-4 ug Vfr, 0.02 uM probe (legends; Methods say 1 umol), 25 C 20 min; recombinant protein; protein details: C-terminal His6; label: biotin; probe letters rebuilt from the primers and the genome
T2 sequence (looked up, limits assumed): T1 sequence (looked up, limits assumed) with K9R, A105I

Row | Sequence | binding result [2] | binding result [3] | also measured
1 | GGAACAGGCAGGGCGCGAACACACT (double strand) [phlG' 25-bp probe] | binds |  | binding result ([1]; 200-fold unlabeled vs 0.02 uM labeled phlG probe, Beyotime chemiluminescent EMSA kit buffer (composition not given), 10 uL, 0.5-4 ug Vfr, 0.02 uM probe …; Methods say 1 umol), label: biotin (unlabeled as competitor)): binds
2 | CAGCGGTTACGACGCCTATTGCGCC (double strand) [phlF' 25-bp probe] | binds |  | binding result ([1]; 200-fold unlabeled vs 0.02 uM labeled phlF probe, Beyotime chemiluminescent EMSA kit buffer (composition not given), 10 uL, 0.5-4 ug Vfr, 0.02 uM probe …; Methods say 1 umol), label: biotin (unlabeled as competitor)): binds
3 | AAAACTGCCGTCAAACTCGGCGATGACGTTCTGATTGCCGATCAGCAGGGCGGCGGCGCCGGCTCCAGCATAGGACTCGGTCAGGTCGCCCGGCGCGGTGTTGCGGTTGATGGTGTCGGCGCCGATGGCCAGGGCGCTGCCGGTCATGCCGGAGGCCACCAGGGCCTGGCAGATCTGCAGGGCGGAGGTGCCGGACTTGCCGGCAAACTGCACGTCGGCGCAATAGGCGTCGTAACCGCTG (double strand) [phlF upstream fragment, 241 bp] |  | binds | 
4 | CAGCGGTATTTACGCCTATTGCGCC (double strand) [phlF-mut 25 bp (TTACG to TATTT)] |  |  | binding result ([1]; 200-fold unlabeled vs 0.02 uM labeled phlF probe, Beyotime chemiluminescent EMSA kit buffer (composition not given), 10 uL, 0.5-4 ug Vfr, 0.02 uM probe …; Methods say 1 umol), label: none (competitor)): no binding
5 | GGGCTGCGCTTTGCATGTTTTTTGC (double strand) [vfr-mut 25 bp (TCACA to TTTTT)] |  |  | binding result ([1]; 200-fold unlabeled vs 0.02 uM labeled vfr probe, Beyotime chemiluminescent EMSA kit buffer (composition not given), 10 uL, 0.5-4 ug Vfr, 0.02 uM probe (legends; Methods say 1 umol), label: none (competitor)): no binding
6 | GAGGACGTTGAACGCTGGCTAAGCGCCAGTCATTTGGCGTCAGCTTAACAGACACATCCTTGACGGATTTAAGATTTTTCTTGGTGAAGATCGGTAATCTGCTGTGAACATGCAAAGCGCAGCCCGGGCAAAACCCTGTGCTAAGCTGGCGACCCTTTTTTTACAGTGGAGTCTTGGCGATGAAGG (double strand) [vfr upstream fragment, 186 bp] |  | binds | 
7 | GGGCTGCGCTTTGCATGTTCACAGC (double strand) [vfr' 25-bp probe] | binds |  | binding result ([1]; 200-fold unlabeled vs 0.02 uM labeled vfr probe, Beyotime chemiluminescent EMSA kit buffer (composition not given), 10 uL, 0.5-4 ug Vfr, 0.02 uM probe (legends; Methods say 1 umol), label: biotin (unlabeled as competitor)): binds
8 | CAGGCCGGGCAGTACGTTGCGCGCCAGCGGCTGATGGGCGATCAGCAGGAACAGGCAGGGCGCGAACACACTGACGGCACTGCGCAACGTGGCCGGATCTTCCGGCGACAGGTGCATGATTTGGCCGAGAATGGTGCGCACGATCTTCGCCTTGGGGAACGCCTGCTCCTCCAGGACCGCCGGCAGCACCGACGAAGGCGACAGCAGCTCGCGGGTCAGCACTTTCAGTGCCCAGCCCTC (double strand) [phlG upstream fragment, 240 bp] |  | binds | 
9 | GGAACAGGCAGGGCGCGAATTTTCT (double strand) [phlG-mut 25 bp (ACACA to ATTTT)] |  |  | binding result ([1]; 200-fold unlabeled vs 0.02 uM labeled phlG probe, Beyotime chemiluminescent EMSA kit buffer (composition not given), 10 uL, 0.5-4 ug Vfr, 0.02 uM probe …; Methods say 1 umol), label: none (competitor)): no binding

Positions count from the first letter of the chain named. The exact form of at least one protein or probe is not confirmed. For part of these data: Negatives hold for the conditions tested. Tags and fusion partners may be left off the protein sequences shown.
